Results: publication PMC3533909
Results are given in words; binding and its absence hold for the method and conditions named. Binding seen in cells or lysates may run through a third protein. Some binding calls cover weakened binding; strength is not graded here.

The chains behind the UniProt entries cited, without tags or fusion partners. Where a name states a change or a piece, a line headed by the entry shows the natural chain unless it says otherwise. A line that says so, or that is headed by a name, gives the form on record, which may keep a tag or linker. Residues count along the entry.
UniProt P51617: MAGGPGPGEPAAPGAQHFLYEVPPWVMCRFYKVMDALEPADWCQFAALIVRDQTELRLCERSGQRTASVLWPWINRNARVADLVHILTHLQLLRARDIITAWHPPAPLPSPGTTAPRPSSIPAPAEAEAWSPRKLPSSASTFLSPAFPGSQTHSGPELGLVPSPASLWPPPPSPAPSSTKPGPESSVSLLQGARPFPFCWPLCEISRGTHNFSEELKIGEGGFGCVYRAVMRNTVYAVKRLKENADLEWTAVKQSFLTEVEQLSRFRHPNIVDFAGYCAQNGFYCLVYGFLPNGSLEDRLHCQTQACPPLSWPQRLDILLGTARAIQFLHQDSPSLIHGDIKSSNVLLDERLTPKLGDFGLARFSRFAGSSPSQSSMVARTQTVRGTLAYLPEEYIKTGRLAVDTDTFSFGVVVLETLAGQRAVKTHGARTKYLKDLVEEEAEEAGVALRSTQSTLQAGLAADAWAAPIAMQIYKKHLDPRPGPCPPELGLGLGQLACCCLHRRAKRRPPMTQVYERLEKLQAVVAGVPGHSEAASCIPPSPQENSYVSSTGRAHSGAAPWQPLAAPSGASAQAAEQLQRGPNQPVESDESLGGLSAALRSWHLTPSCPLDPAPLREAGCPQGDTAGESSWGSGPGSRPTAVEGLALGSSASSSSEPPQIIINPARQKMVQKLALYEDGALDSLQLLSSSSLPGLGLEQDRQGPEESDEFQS
endogenous PINK1 (HEK293) (Q9BXM7, residues 78-581): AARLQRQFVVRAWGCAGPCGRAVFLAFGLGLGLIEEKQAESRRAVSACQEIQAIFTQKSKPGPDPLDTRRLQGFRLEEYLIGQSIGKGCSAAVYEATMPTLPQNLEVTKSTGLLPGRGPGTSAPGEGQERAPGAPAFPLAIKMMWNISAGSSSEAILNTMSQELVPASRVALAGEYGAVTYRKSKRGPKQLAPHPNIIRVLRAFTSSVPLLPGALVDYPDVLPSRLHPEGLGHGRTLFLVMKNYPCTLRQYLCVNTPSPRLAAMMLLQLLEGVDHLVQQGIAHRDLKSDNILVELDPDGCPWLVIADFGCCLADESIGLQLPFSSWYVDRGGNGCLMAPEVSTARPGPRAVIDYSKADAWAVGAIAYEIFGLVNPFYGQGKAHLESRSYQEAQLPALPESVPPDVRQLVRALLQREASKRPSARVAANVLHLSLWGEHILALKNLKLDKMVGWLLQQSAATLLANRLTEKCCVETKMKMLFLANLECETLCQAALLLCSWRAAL
Myc-tagged kinase-deficient hPINK1 mutant (pBOS-3X-myc-hPINK1-KD) (Q9BXM7, form named): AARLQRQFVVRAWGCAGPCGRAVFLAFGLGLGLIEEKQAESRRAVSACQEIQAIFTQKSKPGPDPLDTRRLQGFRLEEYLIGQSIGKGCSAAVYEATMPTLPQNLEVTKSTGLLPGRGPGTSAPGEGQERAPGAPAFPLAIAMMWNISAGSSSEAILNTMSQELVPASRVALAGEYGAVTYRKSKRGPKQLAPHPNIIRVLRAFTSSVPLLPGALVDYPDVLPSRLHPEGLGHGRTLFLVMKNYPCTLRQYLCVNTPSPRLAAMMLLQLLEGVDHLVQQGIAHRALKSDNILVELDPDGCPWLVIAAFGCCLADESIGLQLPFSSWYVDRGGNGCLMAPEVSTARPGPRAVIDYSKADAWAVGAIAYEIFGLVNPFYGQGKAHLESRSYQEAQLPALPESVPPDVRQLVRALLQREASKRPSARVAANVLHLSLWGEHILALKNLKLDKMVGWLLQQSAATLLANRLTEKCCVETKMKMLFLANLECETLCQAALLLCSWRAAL
UniProt Q62406: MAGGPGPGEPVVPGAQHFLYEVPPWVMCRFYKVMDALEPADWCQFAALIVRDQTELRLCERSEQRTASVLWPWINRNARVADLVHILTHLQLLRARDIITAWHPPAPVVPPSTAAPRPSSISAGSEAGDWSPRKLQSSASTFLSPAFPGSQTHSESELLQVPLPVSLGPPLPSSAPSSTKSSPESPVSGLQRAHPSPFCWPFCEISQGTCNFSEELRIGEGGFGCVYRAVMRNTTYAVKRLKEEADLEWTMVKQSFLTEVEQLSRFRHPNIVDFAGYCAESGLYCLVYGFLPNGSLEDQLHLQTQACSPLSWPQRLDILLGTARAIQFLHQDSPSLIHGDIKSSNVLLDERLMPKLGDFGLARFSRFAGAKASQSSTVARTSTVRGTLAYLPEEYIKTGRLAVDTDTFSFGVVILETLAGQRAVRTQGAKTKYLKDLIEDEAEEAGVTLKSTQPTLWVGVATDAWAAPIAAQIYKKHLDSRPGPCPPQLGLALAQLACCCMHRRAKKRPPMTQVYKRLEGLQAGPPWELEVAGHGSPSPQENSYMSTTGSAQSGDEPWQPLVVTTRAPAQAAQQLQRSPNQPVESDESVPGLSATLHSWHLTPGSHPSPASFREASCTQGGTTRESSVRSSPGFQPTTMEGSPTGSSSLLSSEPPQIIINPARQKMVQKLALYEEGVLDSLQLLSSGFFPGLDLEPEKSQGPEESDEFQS

Tests used:
[1] = biological target: Flag-tagged IL-1 receptor-associated kinase 1 (IRAK1) (UniProt P51617); test: co-IP; HEK293 cells transfected for 48 hours, normal growth conditions; lysates in 1% Nonidet P40 lysis buffer (50 mM Tris pH 7.5, 150 mM NaCl), antibody overnight at 4°C, protein A-sepharose
[2] = biological target: T1, endogenous TRAF6 (mouse embryonic fibroblasts) (mouse (endogenous in MEFs)) (UniProt P70196); test: co-IP; endogenous proteins, lysates of PINK1-/- and PINK1+/+ mouse embryonic fibroblasts, 50 ng/ml IL-1β for the indicated times, with or without 50 μM MG132 for 30 minutes beforehand
T1 sequence: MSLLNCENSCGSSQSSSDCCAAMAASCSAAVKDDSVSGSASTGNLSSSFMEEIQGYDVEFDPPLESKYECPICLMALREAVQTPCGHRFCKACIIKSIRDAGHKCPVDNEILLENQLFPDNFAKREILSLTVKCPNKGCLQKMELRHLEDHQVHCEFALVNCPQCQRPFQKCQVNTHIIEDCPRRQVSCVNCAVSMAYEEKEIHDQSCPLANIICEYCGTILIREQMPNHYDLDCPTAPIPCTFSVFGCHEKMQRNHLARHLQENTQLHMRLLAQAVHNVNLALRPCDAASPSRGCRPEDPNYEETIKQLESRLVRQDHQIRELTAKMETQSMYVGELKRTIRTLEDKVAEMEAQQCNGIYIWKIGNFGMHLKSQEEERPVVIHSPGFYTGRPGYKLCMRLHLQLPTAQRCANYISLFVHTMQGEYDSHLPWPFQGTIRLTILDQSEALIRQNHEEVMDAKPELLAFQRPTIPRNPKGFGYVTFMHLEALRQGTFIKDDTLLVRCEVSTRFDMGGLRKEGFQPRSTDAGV

[3] = biological target: endogenous IRAK1 (HEK293) (human (endogenous in HEK293)) (UniProt P51617); test: co-IP; endogenous proteins, HEK293 cell lysates; preimmune IgG as control; 1% Nonidet P40 lysis buffer, 4°C

Row | Substance | binding [1] | further results
1 | Myc-tagged kinase-deficient hPINK1 mutant (pBOS-3X-myc-hPINK1-KD) (from UniProt Q9BXM7 78-581) | binds | –
2 | Myc-tagged wild-type hPINK1 (pBOS-3X-myc-hPINK1-WT) (from UniProt Q9BXM7 78-581) | binds | –
3 | endogenous IRAK1 (mouse embryonic fibroblasts) (from UniProt Q62406 1-710) | – | binding [2]: binds
4 | endogenous PINK1 (HEK293) (from UniProt Q9BXM7 78-581) | – | binding [3]: binds
